This assay deals with GST-3βHSD1 (human) (UniProt P14060). The assay is described as follows: pull-down; GST-3βHSD1 on glutathione resin in PBS overnight; MBP-UBE3D added for 2 hours at 4°C; washed with NP-40 lysis buffer (50 mM Tris-HCl pH 7.6, 150 mM NaCl, 5 mM EDTA, 1% NP-40); immunoblotting; both purified. Background: A western blot detects proteins with antibodies after separation by electrophoresis.

Amino acid sequences for entries named in this document (tags omitted). A change or cut given only in a name is not applied to a line headed by its entry.
UniProt P14060: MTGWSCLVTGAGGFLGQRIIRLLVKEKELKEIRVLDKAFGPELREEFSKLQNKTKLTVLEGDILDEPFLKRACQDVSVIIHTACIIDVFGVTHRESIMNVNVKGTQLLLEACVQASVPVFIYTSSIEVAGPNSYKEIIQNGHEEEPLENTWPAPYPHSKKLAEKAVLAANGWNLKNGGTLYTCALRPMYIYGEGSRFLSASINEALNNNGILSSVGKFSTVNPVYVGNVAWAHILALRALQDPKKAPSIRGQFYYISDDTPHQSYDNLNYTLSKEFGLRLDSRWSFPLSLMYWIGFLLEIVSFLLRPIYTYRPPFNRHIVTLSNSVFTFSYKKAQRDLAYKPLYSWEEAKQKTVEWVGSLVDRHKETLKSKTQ

These are yes or no findings as the source states them, for the method shown. A result given as binding can be weak or reduced; the word gives no strength. Sequences can lack the tags named with a protein.

B1: MBP-UBE3D (enzyme, UniProt Q7Z6J8 1-389)
chain: MAASAAETRVFLEVRGQLQSALLILGEPKEGGMPMNISIMPSSLQMKTPEGCTEIQLPAEVRLVPSSCRGLQFVVGDGLHLRLQTQAKLGTKLISMFNQSSQTQECCTFYCQSCGEVIIKDRKLLRVLPLPSENWGALVGEWCCHPDPFANKSLHPQENDCFIGDSFFLVNLRTSLWQQRPELSPVEMCCVSSDNHCKLEPKANTKVICKRCKVMLGETVSSETTKFYMTEIIIQSSERSFPIIPRSWFVQSVIAQCLVQLSSARSTFRFTIQGQDDKVYILLWLLNSDSLVIESLRNSKYIKKFPLLENTFKADSSSAWSAVKVLYQPCIKSRNEKLVSLWESDISVHPLTLPSATCLELLLILSKSNANLPSSLRRVNSFQVAFLKM
On to B1, for which the binding result is on record as “binds”.

Values taken from PMC10721157.
